Results of single-concentration screens

Data taken from ChEMBL document CHEMBL3988442, “University of Dundee, Small-Polar-MMV Screening Library” (2021).

Mtb cholesterol medium: 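Phenotypic screen: M. tuberculosis growth, cholesterol and DPPC medium, 4 days; the read-out is not stated. Compounds at 50 µM. Direction is inferred from retests: higher values go with more growth inhibition. Size under these conditions: about 69,000 compounds, about 370 of them at 50% or above in at least one test.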
Mtb glucose medium: 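Growth of Mycobacterium tuberculosis over 3 days (7H9 medium with glucose and tyloxapol); the read-out is not stated. Tested at 50 µM. Direction is inferred from retests: higher values go with more growth inhibition. Size under these conditions: about 69,000 compounds, about 760 of them at 50% or above in at least one test.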

Values are the deposited “Percent Effect”, in %.
The record does not define 0% and 100%; most values in the screen are far below 50% and negative numbers occur (in some assays of this library far below -100).
Compounds were drawn at random from those tested, without regard to their results.
Two or more numbers in one place are separate tests of the same structure; such repeats can differ widely.
A dash means the value is not listed here; it may have been measured.

SMILES,Mtb cholesterol medium,Mtb glucose medium
C=C(C)CN(CC)Cc1nc(CC)no1,-0.9314 and 5.306,-1.486 and 25.37
NC(=O)C(NC(=O)COC1CCCC1)c1ccccc1 (centres undefined),4.957,-7.226 and -3.647
c1cc2c(cc1Cn1cc(C3CCOC3)nn1)OCO2 (centres undefined),24.33,18.03 and 20.36
[H][C@@]12C[C@@H](Oc3cccnc3)CN1CCN(Cc1cnn(C)c1)C2,-13.09,-7.927 and -9.896
Cc1cc(F)cc2c(NCC(C)(C)C(N)=O)c(C#N)cnc12,9.052,-1.411 and 13.1
CCNC(c1cccnc1)c1cc(C)cc(C)c1 (centres undefined),16.04,15.83
c1ccc(OCCNC2CCCN(Cc3noc(C4CC4)n3)C2)cc1 (centres undefined),-2.696,-27.44
CCC(C)NS(=O)(=O)Cc1cccc(NC(=O)c2ccc[nH]2)c1 (centres undefined),0.5078,13.91
Cc1n[nH]c(C)c1CCC(=O)N1CCC(O)(CN2CCN(C)CC2)C1 (centres undefined),4.691 and 8.944,-28.49
O=c1cc2c(nn1CN1CCOCC1)CCC2,-3.182,0.5505
COCCC1(CO)CCCN(C(=O)CCC(F)(F)F)C1 (centres undefined),28.01,-34.47 and 8.608
COc1ccc2[nH]cc(C(=O)N3C[C@@H](O)[C@H](NS(C)(=O)=O)C3)c2c1,-19.56,-30.27
CN1C(=O)CCc2cc(NS(=O)(=O)Cc3cccc(F)c3)ccc21,-0.8831,-0.684
CCn1ccnc1CN1CCN(CCCS(C)(=O)=O)CC1C (centres undefined),-25.59,5.045
[H][C@@]12COC[C@]1(COC)CN(C(=O)COC)C2,1.104,-6.957 and -10.34
COCCN(CCOC)C(=O)c1cn(C(C)(C)C)c2ncccc12,-33.56,-22.8
c1cc(CCn2ccc(NC3CCSCC3)n2)ccn1,-5.296,-7.876 and -0.2156
[H][C@@]12CCN(C(=O)c3cc(C)on3)C[C@]1(c1nc(C)no1)CCO2,11.01,-2.043 and 18.46
Cc1ccc(C2CSCCN2C(=O)c2cc(C(N)=O)cs2)o1 (centres undefined),9.141,-5.923 and -0.131
Cc1nc(N2CCOCC2)ncc1-c1cc(O)nc(N2CCCCC2)n1,13.13,-8.999
O=C(Nc1ccccc1C(=O)N1CCCC1)NC1CCOCC1,0.7434,2.353
O=C1NCCCCC1NC(=O)N1CCCc2cc(F)ccc21 (centres undefined),5.831,6.901 and -3.005
Cc1ccnn1-c1ccc(C(=O)N2CCCC(n3ccnc3)C2)cc1 (centres undefined),13.83,30.6 and 7.005
OCCN1CCN(Cc2cc3c(cc2Br)OCCO3)CC1,-3.164,-24.33 and -4.841
CCNC(=O)NC(=O)CNc1cc(C#N)ccc1OCC,-2.743,15.04 and 2.354
O=C(O)C(F)(F)F.[H][C@@]12CCN(Cc3ccoc3)C[C@]1([H])O[C@@H](C(=O)N(C)C)C2,18.87,26.22
FC(F)Oc1ccc(CNCc2cc(Br)c3c(c2)OCO3)cc1,25.51,17.47
CCOC(=O)N1CCC(C(=O)Nc2nnc(C(F)(F)F)[nH]2)CC1,-5.661,-38.96 and -2.335
NCC1Cn2nnc(-c3cccc(F)c3)c2CO1 (centres undefined),0.9526,25.9
CNC(=O)C1CNCCN1C(=O)c1ccc(C(F)(F)F)nc1C.Cl (centres undefined),2.711,10.66
CCc1ccc(C(=O)N2CCC(Nc3ccc(C)nn3)CC2)o1,5.719,-1.602
COCCO[C@@H]1CCN(C(=O)c2occc2C)[C@H]1Cc1cnn(C)c1,-1.558,-5.409
Cc1cnc2n(c1=O)C(CC(=O)NCc1ccc(F)cc1)CS2 (centres undefined),-15.74,4.797
c1cncc(O[C@H]2COCCN(Cc3c[nH]c4ccccc34)C2)c1,20.69,1.197 and -11.46
CN1CCC(Cc2noc(CC3CC3)n2)CC1,4.078 and 0.7591,3.497 and -8.064
CN(CCc1ccccc1)Cc1cc(C(=O)N2CCSCC2)no1,7.066,19.5
Cc1ncc(CNCC(=O)NCC(F)(F)F)n1-c1ccccc1,-2.517,10.74
CCN1CCCC12CCCN(c1ncccn1)C2.O=C(O)C(F)(F)F (centres undefined),8.225 and -23.43,-10.89 and 14.66
O=C(C1CC1)N(Cc1ccc2cc[nH]c2c1)C1CC1,-14.68,8.002
CCn1cc(NC(=O)NCC(C)(C)N2CCc3ccccc3C2)cn1,3.421,24.53
[H][C@@]12C[C@H](C(=O)Nc3ccccc3)[C@@]([H])(CN(C(=O)NC)C1)O2,-16.5,-15.75
Cc1nc(C)n(CC2CCCCN2Cc2cn3ccccc3n2)n1 (centres undefined),4.502,-9.186
CNCCCNC1CCN(c2ccc(-n3ccnc3)cc2)CC1,21.94,7.595
Cc1ncc2c(n1)CN(CC(=O)Nc1cccnc1)CC2,-,-8.938
O=C(Nc1cn[nH]c1)N(CCCO)C1CCc2ccccc21 (centres undefined),-27.27,-19.96
CC(C)Nc1nc2c(c(NC3CC3)n1)CN(C(=O)c1ccsc1)CC2,19.62,24.31 and 17.32
CC(C)C1CN(C(=O)Nc2cnn(CC(F)F)c2)CCO1 (centres undefined),-7.252,-1.169 and -0.235
O=C(N[C@@H]1CC[C@@H](N2CCCC2)[C@@H]1O)c1cc2cccc(F)c2[nH]1,16.34,35.18
Cc1nc(COc2ccc(CNCCn3cccn3)cc2)cs1,-2.332 and -9.66,-43.2
Brc1cccc(C2(CNCc3cc[nH]c3)CCOCC2)c1,-6.938,8.762
CCOCc1ncn2c1CN(S(=O)(=O)c1ccc(C)cc1)CC2,-31.05,-9.53 and -14.38
Cn1ncnc1CCNC(=O)c1cc(Cl)c(Cl)n1C,12.17,26.68
CCc1nnc2n1CCN(Cc1nnc(-c3occc3C)o1)C2,31.21,6.4
O=S(=O)(NCCNc1ccc(-n2cccc2)nn1)c1ccccc1,84.59,95.63 and 70.35
COCc1nc(N(C)CCSc2ccccc2)c2cnn(C)c2n1,28.42 and 34.06,22.43
Cc1ccc(C(CNC(=O)Cc2nc3ncccn3n2)N(C)C)cc1 (centres undefined),-12.28,-6.644
Cn1ccnc1CN(Cc1ccccn1)Cc1ccccc1Cl.O=C(O)CC(O)(CC(=O)O)C(=O)O,11.96,74.57
O=C(O)C(F)(F)F.[H][C@]12CCCN(Cc3cccs3)[C@@]1([H])CN(C(=O)c1ccco1)C2,-12.23,0.88
CC1CN(C(=O)NCCNc2cnccn2)CCO1 (centres undefined),-30.05,-2.435
CN1CCC(NC(=O)NCc2csc(Br)c2)CC1,7.864,12.96
O=C(O)C(F)(F)F.O=C(O)C(F)(F)F.[H][C@@]12CCN(Cc3ccncc3)CC[C@@]1([H])N(S(C)(=O)=O)CCO2,11.84,-0.2309
CCn1ncnc1C(C)NC(=O)C1CCN(C2CCCCC2)CC1 (centres undefined),6.675 and -5.297,-17.89 and 0.7858
CO[C@@H]1CCN(c2ncccn2)[C@H]1Cc1ccccc1,2.589,-2.297 and 4.418
O=C(O)C1c2nc[nH]c2CCN1CC(c1ccccc1)c1ccccc1 (centres undefined),0.7349,15.52
CCn1nc(C)cc1C(=O)NCc1noc(C(C)(C)C)n1,20.92,-7.714

6 of the entries, repeated:

{"smiles": "COCCC1(CO)CCCN(C(=O)CCC(F)(F)F)C1", "stereo": "centres undefined", "Mtb cholesterol medium": 28.01, "Mtb glucose medium": "-34.47 and 8.608"}
{"smiles": "[H][C@@]12CCN(C(=O)c3cc(C)on3)C[C@]1(c1nc(C)no1)CCO2", "Mtb cholesterol medium": 11.01, "Mtb glucose medium": "-2.043 and 18.46"}
{"smiles": "c1cncc(O[C@H]2COCCN(Cc3c[nH]c4ccccc34)C2)c1", "Mtb cholesterol medium": 20.69, "Mtb glucose medium": "1.197 and -11.46"}
{"smiles": "FC(F)Oc1ccc(CNCc2cc(Br)c3c(c2)OCO3)cc1", "Mtb cholesterol medium": 25.51, "Mtb glucose medium": 17.47}
{"smiles": "Brc1cccc(C2(CNCc3cc[nH]c3)CCOCC2)c1", "Mtb cholesterol medium": -6.938, "Mtb glucose medium": 8.762}
{"smiles": "Cc1ncc2c(n1)CN(CC(=O)Nc1cccnc1)CC2", "Mtb glucose medium": -8.938}